Assay results: article PMC3610028
Results are given in words; binding and its absence hold for the method and conditions named. In cells and extracts the contact can be indirect. Some entries that bind do so weakly or less than the wild type. Tags and fused reporters may be left off the sequences shown.

Protein sequences, listed by entry. Tags and fused reporters are not part of them. Lines headed by an entry give the natural chain unless they say otherwise; changes in a name come on top.
UniProt Q9Q0L6: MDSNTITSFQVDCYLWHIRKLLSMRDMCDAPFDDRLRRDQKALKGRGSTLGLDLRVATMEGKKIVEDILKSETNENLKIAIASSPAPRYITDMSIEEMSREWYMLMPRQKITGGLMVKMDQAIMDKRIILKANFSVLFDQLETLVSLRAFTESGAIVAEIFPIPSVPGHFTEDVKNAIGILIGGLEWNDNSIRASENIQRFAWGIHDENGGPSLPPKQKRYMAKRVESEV

Target: T1, Flag-NOLC1 fusion protein (nucleolar and coiled-body phosphoprotein 1) (human) (UniProt Q14978)
T1 sequence: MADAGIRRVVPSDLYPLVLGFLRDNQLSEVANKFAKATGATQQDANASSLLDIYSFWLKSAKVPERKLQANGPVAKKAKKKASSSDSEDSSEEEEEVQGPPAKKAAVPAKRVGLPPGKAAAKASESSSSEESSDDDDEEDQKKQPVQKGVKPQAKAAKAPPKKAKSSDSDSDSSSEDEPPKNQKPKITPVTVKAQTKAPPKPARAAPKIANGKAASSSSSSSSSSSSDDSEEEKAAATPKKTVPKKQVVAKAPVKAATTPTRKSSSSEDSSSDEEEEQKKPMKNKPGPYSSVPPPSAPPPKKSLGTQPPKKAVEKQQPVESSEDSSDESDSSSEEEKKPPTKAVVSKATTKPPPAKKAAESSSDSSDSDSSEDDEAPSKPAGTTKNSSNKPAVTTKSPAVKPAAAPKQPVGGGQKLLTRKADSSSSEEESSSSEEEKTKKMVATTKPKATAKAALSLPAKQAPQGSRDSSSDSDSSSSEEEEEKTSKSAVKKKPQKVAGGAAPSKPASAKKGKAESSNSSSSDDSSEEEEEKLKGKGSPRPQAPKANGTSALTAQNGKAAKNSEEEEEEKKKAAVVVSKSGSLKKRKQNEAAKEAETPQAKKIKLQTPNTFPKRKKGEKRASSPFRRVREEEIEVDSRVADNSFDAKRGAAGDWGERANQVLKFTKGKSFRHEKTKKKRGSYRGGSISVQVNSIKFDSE
Experiment: co-IP

Substance	binding
NS1-ED (74-230 aa), C-terminal effector domain of NS1, EGFP fusion (pEGFP-N1-NS1-ED) (from UniProt Q9Q0L6 74-230) (domain or fragment)	binds
EGFP-NS1 fusion protein (pEGFP-N1-NS1) (from UniProt Q9Q0L6 1-230)	binds
